Data: article PMC4871701
Results are given in words; binding and its absence hold for the method and conditions named. A result given as binding can be weak or reduced; the word gives no strength. Sequences can lack the tags named with a protein. For some assays here: Binding seen in cells or lysates may run through a third protein.

The chains behind the UniProt entries cited, without tags or fusion partners. Where a name states a change or a piece, a line headed by the entry shows the natural chain unless it says otherwise.
UniProt Q9CAJ0: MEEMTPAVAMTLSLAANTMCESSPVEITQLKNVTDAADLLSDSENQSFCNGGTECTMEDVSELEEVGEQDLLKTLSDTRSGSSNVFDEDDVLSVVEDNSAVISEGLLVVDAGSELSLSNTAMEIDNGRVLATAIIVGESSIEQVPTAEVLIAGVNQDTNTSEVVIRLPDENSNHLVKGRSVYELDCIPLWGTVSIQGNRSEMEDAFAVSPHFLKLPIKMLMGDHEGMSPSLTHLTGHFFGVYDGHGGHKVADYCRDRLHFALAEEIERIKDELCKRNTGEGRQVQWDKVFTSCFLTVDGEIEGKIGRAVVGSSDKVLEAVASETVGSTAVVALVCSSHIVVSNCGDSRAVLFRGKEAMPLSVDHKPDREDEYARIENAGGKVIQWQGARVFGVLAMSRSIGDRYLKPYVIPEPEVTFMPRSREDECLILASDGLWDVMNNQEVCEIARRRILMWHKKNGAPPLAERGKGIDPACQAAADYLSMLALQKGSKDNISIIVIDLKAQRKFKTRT

Columns and labels:
[1] = molecular target: T1, RopGEF1 (yeast two-hybrid bait fusion) (Arabidopsis thaliana) (UniProt Q93ZY2); assay: two-hybrid; yeast PJ69-4A, USER-modified pGBT9 and pGADGH; growth on SD-L-W-H with 3 mM 3-AT for 6 d; ABI1/PYL1 without ABA
T1 sequence: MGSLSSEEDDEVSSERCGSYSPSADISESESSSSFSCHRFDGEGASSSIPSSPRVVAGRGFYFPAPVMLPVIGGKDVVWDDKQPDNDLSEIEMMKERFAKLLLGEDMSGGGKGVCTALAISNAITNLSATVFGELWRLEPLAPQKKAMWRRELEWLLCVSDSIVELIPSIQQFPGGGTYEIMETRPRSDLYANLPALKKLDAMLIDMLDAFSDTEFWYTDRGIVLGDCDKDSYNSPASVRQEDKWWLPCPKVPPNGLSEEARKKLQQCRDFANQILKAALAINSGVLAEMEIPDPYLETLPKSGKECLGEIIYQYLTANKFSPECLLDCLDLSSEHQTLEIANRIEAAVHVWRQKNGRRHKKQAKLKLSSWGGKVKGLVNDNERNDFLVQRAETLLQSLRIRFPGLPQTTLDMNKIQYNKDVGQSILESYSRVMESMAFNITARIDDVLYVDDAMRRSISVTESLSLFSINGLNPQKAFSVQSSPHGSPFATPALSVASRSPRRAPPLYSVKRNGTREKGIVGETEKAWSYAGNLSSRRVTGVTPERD

[2] = molecular target: T2, YFP^C-GEF1 (Arabidopsis thaliana) (UniProt Q93ZY2); assay: split reporter; BiFC with YFP^N and YFP^C fusions in N. benthamiana leaves, confocal imaging; fluorescence quantified relative to ROP11-GEF1
T2 sequence: T1 sequence

Row | Substance | binding [1] | binding [2]
1 | HAB1 (yeast two-hybrid fusion) (from UniProt Q9CAJ0) (enzyme) | binds weakly | 
2 | YFP^N-HAB1 (from UniProt Q9CAJ0) (enzyme) |  | binds weakly
